Assay results taken from PMC7925596, “Exploring targeting peptide-shell interactions in encapsulin nanocompartments” (Scientific Reports, 2021).
No constants are given. Whether binding was seen depends on the method and setting. Some binding calls cover weakened binding; strength is not graded here. Tags and fused reporters may be left off the sequences shown.

B1: mNeonGreen C-terminally fused to the native T3 targeting peptide (peptide)
chain: PLTVGSLRRGG
notes: native 11-residue targeting peptide of the M. xanthus (T3) encapsulin system; The targeting peptide is at the C-terminus of mNeonGreen; also called mNeonGreenTP (native T3 TP); native T3 TP; source: E. coli One shot BL21 (DE3) Star, pCDF-Duet1, IPTG induced before encapsulin; co-purified with encapsulin particles; not shown: mNeonGreen, N-terminal, kept
B2: mNeonGreen C-terminally fused to the native T1 targeting peptide (peptide)
chain: NTGGDLGIRK
notes: native targeting peptide of the T. maritima (T1) encapsulin system, from the C-terminus of the native cargo protein; The targeting peptide is at the C-terminus of mNeonGreen; also called mNeonGreenTP (native T1 TP); native T1 TP; source: E. coli One shot BL21 (DE3) Star, pCDF-Duet1, IPTG induced before encapsulin; co-purified with encapsulin particles; not shown: mNeonGreen, N-terminal, kept
B3: mNeonGreen C-terminally fused to the T1 consensus targeting peptide (peptide)
chain: DGSLGIGSLKG
notes: consensus targeting peptide found in T1 encapsulin systems; The targeting peptide is at the C-terminus of mNeonGreen; also called mNeonGreenTP (T1 consensus TP); T1 consensus TP; source: E. coli One shot BL21 (DE3) Star, pCDF-Duet1, IPTG induced before encapsulin; co-purified with encapsulin particles; not shown: mNeonGreen, N-terminal, kept

Assays:
[1] = molecular target: Myxococcus xanthus encapsulin (T3 encapsulin shell) (M. xanthus) (UniProt Q1D6H4); assay: bulk fluorescence of purified encapsulin particles (loading percentage); particles loaded in E. coli and purified; 15 ug/mL in 20 mM Tris, 100 mM NaCl, pH 8 with 1 mg/mL BSA; plate reader Ex 500 nm, Em 530 nm, 20 C; loading = percentage of occupied TP binding sites (T1: 60, T3: 180), mNeonGreen standard curve; triplicates
[2] = molecular target: Myxococcus xanthus encapsulin (T3 encapsulin shell) (M. xanthus) (UniProt Q1D6H4); assay: single particle fluorescence imaging; purified particles loaded in E. coli, diluted 200x (T1) or 1000x (T3), immobilised in glass flow chambers; wide field microscopy, spot intensities by Gaussian fit
[3] = molecular target: Thermotoga maritima encapsulin (T1 encapsulin shell) (T. maritima) (UniProt Q9WZP2); assay: as above
[4] = molecular target: Thermotoga maritima encapsulin (T1 encapsulin shell) (T. maritima) (UniProt Q9WZP2); assay: bulk fluorescence of purified encapsulin particles (loading percentage); particles loaded in E. coli and purified; 15 ug/mL in 20 mM Tris, 100 mM NaCl, pH 8 with 1 mg/mL BSA; plate reader Ex 500 nm, Em 530 nm, 20 C; loading = percentage of occupied TP binding sites (T1: 60, T3: 180), mNeonGreen standard curve; triplicates

| Binder | binding [1] | further results |
| --- | --- | --- |
| PLTVGALRRGG [mNeonGreen fused to the T3 targeting peptide mutant S6A] | binds |  |
| PLTVGSLRAGG [mNeonGreen fused to the T3 targeting peptide mutant R9A] | binds |  |
| PLTVGSLRRWG [mNeonGreen fused to the T3 targeting peptide mutant G10W] | binds |  |
| B1 |  | binding [2]: binds |
| B2 |  | binding [3]: binds |
| B3 |  | binding [3]: binds |
| GGSGGSGGSGG [mNeonGreen C-terminally fused to the GGS control targeting peptide] | no binding | binding [4]: no binding |
